Structures can show the parent of a compound that is named as a salt. This is one part of the list. Single values are uncertain here, since repeats match poorly.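 ReNCell VM, a human fetal ventral-midbrain neural progenitor line, was differentiated without mitogens. Blinded raters scored images stained for doublecortin (early neurons) or tyrosine hydroxylase (dopaminergic neurons) against untreated wells (0 = no change). Scores were averaged across repeats and both raters, and compounds averaging 2 or more were selected as hits for retesting.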
What was measured:
ReNCell VM [1] = assay: neuronal differentiation score (DCX+ cell fraction vs untreated, manual image score) (score (-3 to 3)); higher = more neuronal differentiation; settings: 2 uM, 2 weeks
ReNCell VM [2] = assay: dopaminergic neuron differentiation score (TH+ cell fraction vs untreated, manual image score) (score (0 to 3)); higher = more TH+ dopaminergic neuron differentiation; settings: 2 uM, 4 weeks, BDNF 10 ng/ml + GDNF 10 ng/ml

Structure (SMILES)	neuronal differentiation score (ReNCell VM [1]; library: LOPAC)	neuronal differentiation score (ReNCell VM [1]; library: Prestwick)	neuronal differentiation score (ReNCell VM [1]; library: Tocriscreen)	dopaminergic neuron differentiation score (ReNCell VM [2]; library: LOPAC)	dopaminergic neuron differentiation score (ReNCell VM [2]; library: Prestwick)	dopaminergic neuron differentiation score (ReNCell VM [2]; library: Tocriscreen)	neuronal differentiation score (ReNCell VM [1]; library: Phytochemical)	dopaminergic neuron differentiation score (ReNCell VM [2]; library: Phytochemical)
COc1ccccc1N1CCN(CCCNc2cc(=O)n(C)c(=O)n2C)CC1 [Urapidil hydrochloride]	inactive: 0	inactive: 0	inactive: 0	inactive: 0	inactive: 0	inactive: 0		
C=C1C(=O)O[C@H]2[C@H]1CC/C(C)=C/CC[C@@]1(C)O[C@@H]21 [Parthenolide]	inactive: 0	inactive: 0	inactive: 0	inactive: 0	inactive: 0	inactive: 0	inactive: 0	inactive: 0
CC(C)[N+]1(C)[C@@H]2CC[C@H]1C[C@@H](OC(=O)C(CO)c1ccccc1)C2 (some centres not stated) [Ipratropium bromide]	inactive: -1		inactive: 0	inactive: 0		inactive: 0	inactive: 0	inactive: 0
CN(C)C(=O)C(CCN1CCC(O)(c2ccc(Cl)cc2)CC1)(c1ccccc1)c1ccccc1 [Loperamide hydrochloride]	inactive: 0	inactive: 0	inactive: 0	inactive: 0	inactive: 0	inactive: 0		
CN1C(C(=O)Nc2ccccn2)=C(O)c2ccccc2S1(=O)=O [Piroxicam]	inactive: 0	inactive: 0	inactive: 1	inactive: 0	inactive: 0	inactive: 0		
Nc1nc2c(ncn2COCCO)c(=O)[nH]1 [Acyclovir]	inactive: 0	inactive: 0	inactive: 1	inactive: 0	inactive: 0	inactive: 0		
CN1CCN(C2=Nc3cc(Cl)ccc3Nc3ccccc32)CC1 [Clozapine]	inactive: 0	inactive: 0	inactive: 0	inactive: 0	inactive: 0	inactive: 0		
COc1ccc(/C=C/C(=O)Nc2ccccc2C(=O)O)cc1OC [Tranilast]	inactive: 0	inactive: 0	inactive: 0	inactive: 0	inactive: 0	inactive: 0		
CCCC1O[C@@H]2C[C@H]3[C@@H]4CCC5=CC(=O)C=C[C@]5(C)[C@H]4[C@@H](O)C[C@]3(C)[C@]2(C(=O)CO)O1 (some centres not stated) [Budesonide]	inactive: 1	inactive: 0	inactive: 0	inactive: 0	active: 3	inactive: 0		
COC(=O)[C@@H]1[C@H]2C[C@H]3c4[nH]c5ccccc5c4CCN3C[C@@H]2CC[C@@H]1O [Yohimbine hydrochloride]	inactive: 0	inactive: 0	inactive: 0	inactive: 0	inactive: 0	inactive: 0	inactive: 0	inactive: 0
CCN(CC)CCOCCOC(=O)C1(c2ccccc2)CCCC1 [Carbetapentane citrate]	inactive: 0	inactive: 0	inactive: 0	inactive: 0	inactive: 0	inactive: 0		
COc1ccc2c3c1O[C@H]1C[C@@H](O)C=C[C@@]31CCN(C)C2 [Galanthamine hydrobromide]		inactive: 0	inactive: 0		inactive: 0	inactive: 0	inactive: 0	inactive: 0
COc1cc2nc(N3CCN(C(=O)c4ccco4)CC3)nc(N)c2cc1OC [Prazosin hydrochloride]	inactive: 0	inactive: 0	inactive: 0	inactive: 0	inactive: 0	inactive: 0		
CC#C[C@]1(O)CC[C@H]2[C@@H]3CCC4=CC(=O)CCC4=C3[C@@H](c3ccc(N(C)C)cc3)C[C@@]21C [Mifepristone]	inactive: 0	inactive: 0	inactive: 0	inactive: 0	inactive: 0	inactive: 0		
CN/C(=N\CCSCc1nc[nH]c1C)NC#N [Cimetidine]	inactive: 1	inactive: 0	inactive: 0	inactive: 0	inactive: 0	inactive: 0		
CC(CCc1ccc(O)cc1)NCCc1ccc(O)c(O)c1 (configuration not stated) [Dobutamine hydrochloride]	inactive: 0	inactive: 0	inactive: 0	inactive: 0	inactive: 0	inactive: 0		
CC(C)NCC(O)COc1ccc(CCOCC2CC2)cc1 (configuration not stated) [Betaxolol hydrochloride]	inactive: 0	inactive: 0	inactive: 0	inactive: 0	inactive: 0	inactive: 0		
CC[C@H](C)C(=O)O[C@H]1CCC=C2C=C[C@H](C)[C@H](CC[C@@H]3C[C@@H](O)CC(=O)O3)[C@H]21 [Mevastatin]	active: 3	inactive: 1	active: 2	active: 2	active: 3	active: 2		

2 entries picked at random from those above, as already listed:
Structure (SMILES)	neuronal differentiation score (ReNCell VM [1]; library: LOPAC)	neuronal differentiation score (ReNCell VM [1]; library: Prestwick)	neuronal differentiation score (ReNCell VM [1]; library: Tocriscreen)	dopaminergic neuron differentiation score (ReNCell VM [2]; library: LOPAC)	dopaminergic neuron differentiation score (ReNCell VM [2]; library: Prestwick)	dopaminergic neuron differentiation score (ReNCell VM [2]; library: Tocriscreen)	neuronal differentiation score (ReNCell VM [1]; library: Phytochemical)	dopaminergic neuron differentiation score (ReNCell VM [2]; library: Phytochemical)
CC#C[C@]1(O)CC[C@H]2[C@@H]3CCC4=CC(=O)CCC4=C3[C@@H](c3ccc(N(C)C)cc3)C[C@@]21C [Mifepristone]	inactive: 0	inactive: 0	inactive: 0	inactive: 0	inactive: 0	inactive: 0		
CN1CCN(C2=Nc3cc(Cl)ccc3Nc3ccccc32)CC1 [Clozapine]	inactive: 0	inactive: 0	inactive: 0	inactive: 0	inactive: 0	inactive: 0		

Reference: the supplement of paper PMC4635364
